Earlier results as cited in patent publication US12070502B2, “Process for reducing subvisible particles in a pharmaceutical formulation” (Regeneron Pharmaceuticals, Inc., priority 2014, dated 2024).
At least one structure is not confirmed: it was looked up by name or label, or the drawing left a doubt.

Details: cited from earlier work

## O=S(=O)(O)CCN1CCN(CCS(=O)(=O)O)CC1 [PIPES]
  Useful pH: 6.1-7.5
